Laboratory results taken from article PMC4937315.
These are yes or no findings as the source states them, for the method shown. In cells and extracts the contact can be indirect. Some results given as binding are weak or reduced against the parent protein; the word gives no strength. For some assays here: Tags and fused reporters may be left off the sequences shown.

The chains behind the UniProt entries cited, without tags or fusion partners.
UniProt G5EES3: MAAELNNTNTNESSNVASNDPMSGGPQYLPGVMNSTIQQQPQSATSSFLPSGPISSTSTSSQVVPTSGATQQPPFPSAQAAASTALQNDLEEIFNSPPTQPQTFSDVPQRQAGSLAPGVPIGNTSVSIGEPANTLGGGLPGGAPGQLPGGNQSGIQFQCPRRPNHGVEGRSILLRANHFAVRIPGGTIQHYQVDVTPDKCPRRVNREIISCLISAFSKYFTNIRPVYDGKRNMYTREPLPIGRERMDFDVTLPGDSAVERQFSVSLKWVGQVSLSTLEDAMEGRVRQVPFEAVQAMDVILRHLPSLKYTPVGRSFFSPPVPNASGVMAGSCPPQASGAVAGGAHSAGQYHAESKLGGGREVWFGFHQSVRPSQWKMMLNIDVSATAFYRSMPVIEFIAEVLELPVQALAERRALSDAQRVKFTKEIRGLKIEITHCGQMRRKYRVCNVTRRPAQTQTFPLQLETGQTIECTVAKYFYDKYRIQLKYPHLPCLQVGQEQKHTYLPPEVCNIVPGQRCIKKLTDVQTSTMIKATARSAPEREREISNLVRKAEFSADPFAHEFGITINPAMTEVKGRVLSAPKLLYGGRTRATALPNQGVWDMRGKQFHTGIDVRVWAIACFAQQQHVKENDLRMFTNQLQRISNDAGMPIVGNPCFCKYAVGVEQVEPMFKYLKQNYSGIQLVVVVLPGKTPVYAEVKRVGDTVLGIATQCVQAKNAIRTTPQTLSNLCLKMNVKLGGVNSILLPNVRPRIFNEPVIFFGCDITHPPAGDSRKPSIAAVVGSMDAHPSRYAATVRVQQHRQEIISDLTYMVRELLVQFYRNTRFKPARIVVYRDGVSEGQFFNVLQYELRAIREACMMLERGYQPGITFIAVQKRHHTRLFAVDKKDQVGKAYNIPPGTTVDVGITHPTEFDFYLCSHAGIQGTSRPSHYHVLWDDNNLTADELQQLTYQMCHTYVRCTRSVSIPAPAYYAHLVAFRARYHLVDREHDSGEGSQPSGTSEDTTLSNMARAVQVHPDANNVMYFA
UniProt O16720: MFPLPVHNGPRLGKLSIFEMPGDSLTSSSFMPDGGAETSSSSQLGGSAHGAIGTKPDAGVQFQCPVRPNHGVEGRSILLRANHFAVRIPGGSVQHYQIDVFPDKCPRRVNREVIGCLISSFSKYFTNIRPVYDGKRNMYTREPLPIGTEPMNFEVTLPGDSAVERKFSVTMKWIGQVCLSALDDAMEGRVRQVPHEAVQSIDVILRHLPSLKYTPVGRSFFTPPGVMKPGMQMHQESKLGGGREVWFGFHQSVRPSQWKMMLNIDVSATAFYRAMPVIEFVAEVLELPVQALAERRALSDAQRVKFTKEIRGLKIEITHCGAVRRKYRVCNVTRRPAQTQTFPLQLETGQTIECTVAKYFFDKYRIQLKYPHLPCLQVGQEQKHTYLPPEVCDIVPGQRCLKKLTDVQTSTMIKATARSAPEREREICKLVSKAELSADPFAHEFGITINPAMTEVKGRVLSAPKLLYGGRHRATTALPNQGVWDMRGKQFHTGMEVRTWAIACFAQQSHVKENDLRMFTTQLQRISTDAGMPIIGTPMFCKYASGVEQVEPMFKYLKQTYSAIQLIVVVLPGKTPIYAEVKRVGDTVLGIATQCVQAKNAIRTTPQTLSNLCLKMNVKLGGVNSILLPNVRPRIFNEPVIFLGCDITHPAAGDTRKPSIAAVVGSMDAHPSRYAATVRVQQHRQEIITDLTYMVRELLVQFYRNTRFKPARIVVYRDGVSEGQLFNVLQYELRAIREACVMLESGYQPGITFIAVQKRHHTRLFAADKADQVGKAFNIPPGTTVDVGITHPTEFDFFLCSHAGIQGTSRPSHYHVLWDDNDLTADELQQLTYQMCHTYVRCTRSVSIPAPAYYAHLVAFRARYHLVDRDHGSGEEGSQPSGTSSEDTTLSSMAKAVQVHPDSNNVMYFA

T1: PAB-1 (C. elegans cytoplasmic poly(A)-binding protein 1) (C. elegans (endogenous in embryos)) (UniProt Q9U302)
T1 sequence: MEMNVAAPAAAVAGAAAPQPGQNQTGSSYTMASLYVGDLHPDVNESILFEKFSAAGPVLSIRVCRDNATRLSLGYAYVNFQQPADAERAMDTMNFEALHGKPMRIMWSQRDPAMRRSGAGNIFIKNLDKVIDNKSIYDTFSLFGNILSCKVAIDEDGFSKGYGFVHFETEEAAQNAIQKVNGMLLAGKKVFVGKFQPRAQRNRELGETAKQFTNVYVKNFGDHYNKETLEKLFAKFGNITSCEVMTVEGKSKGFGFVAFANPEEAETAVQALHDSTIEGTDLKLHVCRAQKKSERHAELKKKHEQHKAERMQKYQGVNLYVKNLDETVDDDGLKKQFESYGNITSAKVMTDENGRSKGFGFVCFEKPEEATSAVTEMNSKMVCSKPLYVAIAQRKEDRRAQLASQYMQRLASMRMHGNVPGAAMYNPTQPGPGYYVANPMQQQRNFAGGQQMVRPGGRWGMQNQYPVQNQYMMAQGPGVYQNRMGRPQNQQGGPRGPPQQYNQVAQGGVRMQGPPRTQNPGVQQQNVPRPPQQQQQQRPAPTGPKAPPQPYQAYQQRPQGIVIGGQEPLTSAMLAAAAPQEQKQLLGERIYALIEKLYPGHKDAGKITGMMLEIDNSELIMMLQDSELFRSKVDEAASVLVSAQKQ

T2: GST-PAIP2 (mammalian PABP interacting protein 2 fused to GST) (UniProt Q9BPZ3)
T2 sequence: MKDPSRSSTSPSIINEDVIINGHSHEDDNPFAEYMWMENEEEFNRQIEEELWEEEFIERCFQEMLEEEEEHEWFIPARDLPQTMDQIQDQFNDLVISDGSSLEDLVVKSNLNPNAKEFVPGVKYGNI

B1: PAB-1 (C. elegans cytoplasmic poly(A)-binding protein 1) (protein, UniProt Q9U302 1-646)
chain: T1 sequence

What was measured:
[1] = target: T1, PAB-1 (C. elegans cytoplasmic poly(A)-binding protein 1) (C. elegans (endogenous in embryos)); test: pull-down; proteins of pab-2(ok1851) embryonic S10 lysate (no PAB-2) co-purified with PAB-1, which was pulled down through its ligand GST-PAIP2 on Glutathione-Sepharose beads; 0.1 ng/µl RNase A; western blot
[2] = target: T2, GST-PAIP2 (mammalian PABP interacting protein 2 fused to GST); test: pull-down; depletion of the embryonic translation extract with matrix-bound GST-PAIP2 (as in ref. 24); what is left in the treated extract read by western blot; only the target purified
[3] = target: T2, GST-PAIP2 (mammalian PABP interacting protein 2 fused to GST); test: pull-down; 100 µg GST-PAIP2 pre-coupled to Glutathione-Sepharose 4B beads; 2 mg S10 lysate of WT (N2) embryos; 1 h at 4°C; 25 mM Tris-Cl pH 7.5, 100 mM KCl, 2.5 mM MgCl2, 0.1% Triton X-100, 10% glycerol, 0.1 ng/µl RNase A; western blot; RNase A or MNase treatment did not impinge on co-purification; only the target purified
[4] = target: T2, GST-PAIP2 (mammalian PABP interacting protein 2 fused to GST); test: pull-down; 100 µg GST-PAIP2 pre-coupled to Glutathione-Sepharose 4B beads; S10 lysate of pab-2(ok1851) embryos (no PAB-2); 1 h at 4°C; 0.1 ng/µl RNase A; western blot; only the target purified

Row | Molecule | binding [1] | binding [2] | binding [3] | binding [4]
1 | ALG-1 (miRNA-dedicated Argonaute protein) (from UniProt G5EES3 1-1023) | binds |  |  | 
2 | ALG-2 (miRNA-dedicated Argonaute protein) (from UniProt O16720 1-910) | binds |  |  | 
3 | B1 |  | binds | binds | binds
